# Test results published in publication doi:10.1101/2023.05.02.538526.
# No constants are given. Whether binding was seen depends on the method and setting. Binding seen in cells or lysates may run through a third protein. For some assays here: A result given as binding can be weak or reduced; the word gives no strength.
# Tests used:
# [1] = biological target: T1, tetraspanin CD81 (human (endogenous in C91-PL)) (UniProt P60033); experiment: co-IP
# T1 sequence: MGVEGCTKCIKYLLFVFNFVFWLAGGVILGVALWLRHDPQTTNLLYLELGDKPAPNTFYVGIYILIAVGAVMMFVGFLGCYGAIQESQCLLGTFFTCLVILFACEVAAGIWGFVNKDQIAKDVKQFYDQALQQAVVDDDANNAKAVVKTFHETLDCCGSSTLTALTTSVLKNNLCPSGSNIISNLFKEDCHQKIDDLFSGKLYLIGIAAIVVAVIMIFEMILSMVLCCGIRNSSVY
# [2] = biological target: T2, tetraspanin CD82 (human (endogenous in C91-PL)) (UniProt P27701); experiment: co-IP
# T2 sequence: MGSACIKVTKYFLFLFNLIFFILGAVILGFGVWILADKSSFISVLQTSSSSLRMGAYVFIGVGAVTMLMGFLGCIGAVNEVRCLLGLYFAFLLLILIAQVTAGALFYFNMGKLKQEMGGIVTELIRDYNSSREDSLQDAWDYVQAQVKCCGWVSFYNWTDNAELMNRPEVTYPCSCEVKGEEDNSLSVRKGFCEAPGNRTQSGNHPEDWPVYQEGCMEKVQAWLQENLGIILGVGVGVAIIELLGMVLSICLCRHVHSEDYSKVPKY
substance,measurement,setting,value
HTLV-1 Gag,binding,[1],no binding
same,binding,[2],binds
